Results on one molecule are retold here after doi:10.1101/2025.02.09.636592.

No constants are given. Whether binding was seen depends on the method and setting. In cells and extracts the contact can be indirect. Some binding calls cover weakened binding; strength is not graded here. Tags and fused reporters may be left off the sequences shown.

The assay concerns the target T1, endogenous thioredoxin (TRX) of HEK293T cells (human (endogenous in HEK293T)) (UniProt P10599).
T1 sequence: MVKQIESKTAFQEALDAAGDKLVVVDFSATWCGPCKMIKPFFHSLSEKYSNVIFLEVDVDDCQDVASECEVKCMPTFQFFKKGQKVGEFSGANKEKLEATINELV
As to the kind of experiment: co-IP.

B1: C1ORF116-V5 transiently expressed in HEK293T cells (protein, UniProt Q9BW04 1-601)
chain: MPERELWPAGTGSEPVTRVGSCDSMMSSTSTRSGSSDSSYDFLSTEEKECLLFLEETIGSLDTEADSGLSTDESEPATTPRGFRALPITQPTPRGGPEETITQQGRTPRTVTESSSSHPPEPQGLGLRSGSYSLPRNIHIARSQNFRKSTTQASSHNPGEPGRLAPEPEKEQVSQSSQPRQAPASPQEAALDLDVVLIPPPEAFRDTQPEQCREASLPEGPGQQGHTPQLHTPSSSQEREQTPSEAMSQKAKETVSTRYTQPQPPPAGLPQNARAEDAPLSSGEDPNSRLAPLTTPKPRKLPPNIVLKSSRSSFHSDPQHWLSRHTEAAPGDSGLISCSLQEQRKARKEALEKLGLPQDQDEPGLHLSKPTSSIRPKETRAQHLSPAPGLAQPAAPAQASAAIPAAGKALAQAPAPAPGPAQGPLPMKSPAPGNVAASKSMPISIPKAPRANSALTPPKPESGLTLQESNTPGLRQMNFKSNTLERSGVGLSSYLSTEKDASPKTSTSLGKGSFLDKISPSVLRNSRPRPASLGTGKDFAGIQVGKLADLEQEQSSKRLSYQGQSRDKLPRPPCVSVKISPKGVPNEHRREALKKLGLLKE
Turning to B1, the binding result was “binds”.
